These are yes or no findings as the source states them, for the method shown. Some results given as binding are weak or reduced against the parent protein; the word gives no strength.
Legend:
[1] = biological target: Transforming Growth Factor-Beta1 (UniProt P01137); assay: SPR (Biacore T200), real time interaction of peptide with growth factor
[2] = biological target: platelet-derived growth factor-BB (UniProt P01127); assay: as above

By UniProt entry, the sequences of proteins in these tests, tags left out. Residues count along the entry.
UniProt P01137, residues 279-390: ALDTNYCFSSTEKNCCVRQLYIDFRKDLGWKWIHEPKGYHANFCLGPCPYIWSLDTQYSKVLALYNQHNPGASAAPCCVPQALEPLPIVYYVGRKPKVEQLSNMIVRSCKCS
UniProt P01127, residues 82-190: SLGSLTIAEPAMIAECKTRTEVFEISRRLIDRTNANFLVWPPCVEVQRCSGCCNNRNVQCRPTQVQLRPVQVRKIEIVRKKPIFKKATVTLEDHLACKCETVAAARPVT

B1: P46 (HISKYILRWRPKNSV), fibronectin-derived peptide (peptide)
peptide: HISKYILRWRPKNSV
notes: Found as an elastase digestion product of FNIII1-C and then synthesized; Linear
**Q.** What does the source list for B1?
**A.** binding [1]: binds; binding [2]: binds

**Q.** What does the source list for HIGKYGLRWRPKGSV (cyclic: N terminus amino acid bound to the C terminus amino acid) [cNP8, cyclic …, elastase-resistant engineered peptide derived from P46]?
**A.** binding [1]: binds; binding [2]: binds
